# Results from PubChem BioAssay AID2685 (National Center for Advancing Translational Sciences (NCATS), 2010).
# Hit rate of the full screen: of about 320,000 compounds, about 2,100 (0.66%) were called active. The inconclusive results got no clear call from the source; some entries with a clear call stand among them for comparison. Calls follow the shape of the dose curve; as a rule, active = well fitted inhibition curve with a large enough effect in the signal ratio, with a control signal flat (not every such curve was filed as active); inconclusive = small, poorly fitted or top-dose-only effect, or effect the other way, or a change in a side signal; inactive = flat fitted curve, though single readings scatter; the % refers to the signal ratio. Potencies of inconclusive entries are doubtful fits and often do not repeat.
# Test: qHTS Assay for Lipid Storage Modulators in Drosophila S3 Cells
# Conditions: BODIPY lipid droplet fluorescence, 18-24 h, cells fed with added oleic acid; lipid storage change, negative = inhibition: at 46.1 µM (top of the series) unless noted
# Summary of the method: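 Drosophila S3 cells loaded with oleic acid (400 uM, as added) and compounds at several concentrations; lipid droplets imaged by 488-nm laser-scanning cytometry, 500–530 nm intensity and object ratio to cell channel. Percent activity normalized to 20 uM Triacsin C.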
# % is scaled to controls: 0 for no effect and ±100 for the full control effect; potency is read from the fitted curve at half-maximal effect.
Structure (SMILES),Potency,"lipid storage change, negative = inhibition"
O=C(N/N=C/C(Br)=C/c1ccccc1)c1ccccc1[N+](=O)[O-],"inconclusive: 23.1 µM [cytotoxic, single point]",
Cc1cc(C(=O)COC(=O)c2ccc3c(c2)NC(=O)CS3)c(C)n1CC1CCCO1 (stereo not drawn),"inconclusive: 0.0052 µM [falling, full curve, poor fit]",
COc1ccc(CSc2nc(C)cc(C)c2S(C)(=O)=O)cc1,,inconclusive: -4.27%
Cc1ccc(NC(=O)CNc2ccc(Cl)c(Cl)c2)cc1S(=O)(=O)N(C)C,"inconclusive: 32.6 µM [falling, single point]",
CNC(=O)c1ccc(NC(=O)c2cc(S(=O)(=O)N3CCOCC3)ccc2N2CCCC2)cc1,,inconclusive: 13.5%
COc1ccc(C)cc1C(=O)CCC(=O)NCCc1ccc(S(N)(=O)=O)cc1,"inconclusive: 6.51 µM [activator, single point]",
CC(C(=O)NC1=NCCS1)N1C(=O)c2ccccc2C1=O (stereo not drawn),,inactive: 4.57%
CN(C(=O)CSc1nc(N)cc(N)n1)C1CCS(=O)(=O)C1 (stereo not drawn),,inconclusive: 36.9%
CCCN(CC(=O)Nc1ccccc1C)C(=O)C1CC(=O)N(c2ccccc2C(C)CC)C1 (stereo not drawn),"inconclusive: 29.1 µM [falling, single point]",
CCn1c(SCC(=O)N/N=C/c2cccs2)nc2ccccc21,,inconclusive: -40.3%
Cn1c(SCc2ccc(F)cc2)nnc1-c1cnccn1,,inconclusive: 13.6%
Cc1ncsc1CCSc1nc2ccccc2c(=O)n1C,"inconclusive: 6.51 µM [rising, single point]",
CCCCCCc1c(O)nc(SCCN(C)C)[nH]c1=O,,inconclusive: -43%
CCOC(=O)c1sc(NC(=O)Cn2nnc3sc4c(c3c2=O)CCCC4)nc1C,,inconclusive: -2.01%
CCN1CCN(C(c2cccs2)C(C)NC(=S)Nc2cc(C)ccc2C)CC1 (stereo not drawn),"inconclusive: 3.66 µM [falling, full curve, poor fit]",
COCCN(C(=O)c1cc(Cl)ccn1)c1c(N)n(Cc2ccccc2)c(=O)[nH]c1=O,,inconclusive: 157%
N/C(=C/C(=O)c1ccccc1O)C(F)(F)F,,inconclusive: -23.5%
CC(=O)Nc1ccc(S(=O)(=O)N(C)CC(=O)Nc2ccc(F)c(F)c2F)cc1,,inconclusive: 12.9%
O=C(O)CC(NC(=O)COc1ccc(Cl)cc1Cl)C(=O)O (stereo not drawn),,inconclusive: 10.8%
O=C(CSc1n[nH]c(=O)[nH]c1=O)Nc1cccc(S(=O)(=O)N2CCOCC2)c1,,inconclusive: 33.5%
CC(=O)N1CCCc2cc(S(=O)(=O)NC(C(=O)NC(C)c3ccccc3)C(C)C)ccc21 (stereo not drawn),,inconclusive: 0.092%
COCc1cc(=O)n2[nH]c(C)nc2n1,,inconclusive: -69.1%
O=C(COC(=O)C1CC1)Nc1ccc(Cl)cc1Cl,,inconclusive: 16.8%

Structure (SMILES),Potency,"lipid storage change, negative = inhibition"
CCOc1ccc(C(C(=O)NC2CCCC2)N(C(=O)c2snc(C(N)=O)c2N)C2CCCC2)cc1 (stereo not drawn),,inconclusive: -54.7%
CCN(CC)c1ccc2c(O)cc(=O)oc2c1,,inconclusive: -16.3%
Cc1ccc(OCc2cc(C(=O)N(C)Cc3cc(C4CC4)n[nH]3)no2)cc1C,,inconclusive: -2.46%
CC1(c2nnc(Cc3ccccc3)o2)CC(c2ccc(OC(F)(F)F)cc2)=NO1 (stereo not drawn),,inconclusive: -81.6%
CSc1ccc(S(=O)(=O)NCC(=O)OCC(=O)NCc2cccs2)cc1[N+](=O)[O-],,inconclusive
COc1cc(N(C)C)c([N+](=O)[O-])cc1C(=O)NC(C)CNc1ccc([N+](=O)[O-])cc1Cl (stereo not drawn),,inconclusive: 2.04%
COc1ccc(/C=C/c2ccc3cccc(O)c3n2)c(OC)c1OC,,inconclusive: -24.8%
O=C(NCc1ccccc1)C1=C[C@H](c2ccc(Br)cc2)C[C@H](OCc2ccc(CO)cc2)O1,,inconclusive: 17.9%
Cc1ccccc1NC(=O)COC(=O)c1ccc(CSc2ccc(Cl)cc2)cc1,"inconclusive: 20.6 µM [activator, single point]",
CCn1cc(C(=O)N2CCN(c3ccccn3)CC2)c2cc(OC)c(OC)cc2c1=O,"inconclusive: 8.2 µM [activator, partial curve, poor fit]",
NC(=O)Cc1ccc(Nc2nnc(-c3ccccc3)c3ccccc23)cc1,,inconclusive: -22.1%
O=C(OCC(=O)N1CCCc2ccccc21)c1cc(Cl)ccc1O,,inconclusive: 24%
COc1ccc(O[C@H]2C=C[C@@H](c3ccccc3)O[C@@H]2COC(=O)CC/C(C)=N/O[C@@H](C)c2cc(-c3c(C)cc(C)cc3C)no2)cc1,"inconclusive: 13 µM [activator, partial curve]",
COC(=O)c1ccc(NC(=S)N2CCN(CCO)CC2)cc1,"inconclusive: 16.4 µM [activator, partial curve]",
CCOC(=O)c1nc(NNC(C)=O)sc1C,,inconclusive: -16.5%
Cc1cc(/C=N/n2c(COc3ccccc3)nc3ccccc3c2=O)c(O)c([N+](=O)[O-])c1,,inconclusive: -14.3%
O=C(c1ccc2c(=O)n3c(nc2c1)CCCCC3)N1CCCCC1,"inconclusive: 29.1 µM [falling, single point]",
COc1cc(/C=N/OCC(=O)NC2CCCCC2)ccc1OCc1ccccc1,"inconclusive: 29.1 µM [rising, single point]",
O=C(c1cc(C2CC2)nn1-c1ccccc1)N1CCN(S(=O)(=O)c2cccc(F)c2)CC1,,inactive: 17.5%
COCCn1nnnc1CN1CCN2CCCC2C1 (stereo not drawn),,inconclusive: -17.8%
CC(C)(C)c1ccc(C(=O)N2CCN(Cc3ccccc3)CC2)cc1,,inconclusive: -100%
CC(=O)CCC1CC(c2ccc(Cl)cc2)=NO1 (stereo not drawn),,inconclusive: 25.5%
COc1ccccc1N1CCN(/N=C\c2cccnc2)CC1,,inconclusive: 6.34%
CCc1[nH]nc2c1C(c1cccnc1)C(C#N)=C(N)O2 (stereo not drawn),,inconclusive: 19.9%

# Quoted from the listing (12 entries):
Structure (SMILES),Potency,"lipid storage change, negative = inhibition"
CCN(CC)c1ccc2c(O)cc(=O)oc2c1,,inconclusive: -16.3%
Cc1ccc(OCc2cc(C(=O)N(C)Cc3cc(C4CC4)n[nH]3)no2)cc1C,,inconclusive: -2.46%
CC1(c2nnc(Cc3ccccc3)o2)CC(c2ccc(OC(F)(F)F)cc2)=NO1 (stereo not drawn),,inconclusive: -81.6%
CSc1ccc(S(=O)(=O)NCC(=O)OCC(=O)NCc2cccs2)cc1[N+](=O)[O-],,inconclusive
COc1cc(N(C)C)c([N+](=O)[O-])cc1C(=O)NC(C)CNc1ccc([N+](=O)[O-])cc1Cl (stereo not drawn),,inconclusive: 2.04%
COc1ccc(/C=C/c2ccc3cccc(O)c3n2)c(OC)c1OC,,inconclusive: -24.8%
O=C(NCc1ccccc1)C1=C[C@H](c2ccc(Br)cc2)C[C@H](OCc2ccc(CO)cc2)O1,,inconclusive: 17.9%
Cc1ccccc1NC(=O)COC(=O)c1ccc(CSc2ccc(Cl)cc2)cc1,"inconclusive: 20.6 µM [activator, single point]",
CCn1cc(C(=O)N2CCN(c3ccccn3)CC2)c2cc(OC)c(OC)cc2c1=O,"inconclusive: 8.2 µM [activator, partial curve, poor fit]",
NC(=O)Cc1ccc(Nc2nnc(-c3ccccc3)c3ccccc23)cc1,,inconclusive: -22.1%
O=C(OCC(=O)N1CCCc2ccccc21)c1cc(Cl)ccc1O,,inconclusive: 24%
COc1ccc(O[C@H]2C=C[C@@H](c3ccccc3)O[C@@H]2COC(=O)CC/C(C)=N/O[C@@H](C)c2cc(-c3c(C)cc(C)cc3C)no2)cc1,"inconclusive: 13 µM [activator, partial curve]",
